Results: patent EP4806921A1 (Daan Biotherapeutics, Inc., dated 2026)
Results are given in words; binding and its absence hold for the method and conditions named. Some results given as binding are weak or reduced against the parent protein; the word gives no strength.

Amino acid sequences for entries named in this document (tags omitted). Residues count along the entry.
UniProt P06731, residues 35-685: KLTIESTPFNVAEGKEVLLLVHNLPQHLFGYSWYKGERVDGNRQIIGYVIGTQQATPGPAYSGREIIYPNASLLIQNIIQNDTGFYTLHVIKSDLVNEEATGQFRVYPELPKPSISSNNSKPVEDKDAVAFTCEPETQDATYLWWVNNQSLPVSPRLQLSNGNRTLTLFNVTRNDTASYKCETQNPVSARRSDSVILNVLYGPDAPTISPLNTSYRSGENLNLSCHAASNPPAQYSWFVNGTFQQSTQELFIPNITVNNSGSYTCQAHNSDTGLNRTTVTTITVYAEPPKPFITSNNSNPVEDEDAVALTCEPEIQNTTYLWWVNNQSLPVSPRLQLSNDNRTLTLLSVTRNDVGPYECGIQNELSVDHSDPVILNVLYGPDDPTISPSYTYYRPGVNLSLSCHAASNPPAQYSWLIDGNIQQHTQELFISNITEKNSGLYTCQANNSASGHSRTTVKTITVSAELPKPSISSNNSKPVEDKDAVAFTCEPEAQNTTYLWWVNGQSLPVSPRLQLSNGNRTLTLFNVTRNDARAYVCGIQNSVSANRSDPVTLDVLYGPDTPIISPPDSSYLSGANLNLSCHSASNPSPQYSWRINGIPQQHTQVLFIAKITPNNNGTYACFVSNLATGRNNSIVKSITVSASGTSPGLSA

These binders were tested against CEACAM5 recombinant protein (Biacore analyte) (UniProt P06731) (assay: SPR, Biacore 8K, antibody on protein A chip, CEACAM5 at 200 nM).

| binding | Binder |
| --- | --- |
| binds | humanized 45A2E10-02 antibody (antibody, V domains shown) VH: QVQLQESGPGLVKPSETLSLTCTVSGGSISNYGVHWIRQPPGKGLEWIGLIWAGGHTNYNSALMSRVTISKDNSKSQISLKLSSVTAADTAVYYCAREVRRDWYFDVWGQGTMVTVSS VL: DIQMTQSPSSLSASVGDRVTITCRASENIYSYLTWYQQKPGKAPKLLIYNAKILAEGVPSRFSGSGSGTDFTLTISSLQPEDFATYYCQHHFGTPFTFGQGTKLEIK |
| binds | humanized 45A2E10-06 antibody (antibody, V domains shown) VH: QVQLQESGPGLVKPSQTLSLTCAVYGGSFSNYGVHWIRQPPGKGLEWIGLIWAGGHTNYNSALMSRVTISKDNSKSQISLKLSSVTAADTAVYYCAREVRRDWYFDVWGQGTMVTVSS VL: DIQMTQSPSTLSASVGDRVTITCRASENIYSYLTWYQQKPGKAPKLLIYNAKILAEGVPSRFSGSGSGTEFTLTISSLQPDDFATYYCQHHFGTPFTFGQGTKLEIK |
| binds | humanized 45A2E10-03 antibody (antibody, V domains shown) VH: QVQLQESGPGLVKPSQTLSLTCAVYGGSFSNYGVHWIRQPPGKGLEWIGLIWAGGHTNYNSALMSRVTISKDNSKSQISLKLSSVTAADTAVYYCAREVRRDWYFDVWGQGTMVTVSS VL: DIQMTQSPSSLSASVGDRVTITCRASENIYSYLTWYQQKPGKAPKLLIYNAKILAEGVPSRFSGSGSGTDFTLTISSLQPEDFATYYCQHHFGTPFTFGQGTKLEIK |
| binds | humanized 45A2E10-08 antibody (antibody, V domains shown) VH: QVQLQESGPGLVKPSETLSLTCTVSGGSISNYGVHWIRQPPGKGLEWIGLIWAGGHTNYNSALMSRVTISKDNSKSQISLKLSSVTAADTAVYYCAREVRRDWYFDVWGQGTMVTVSS VL: EIVMTQSPATLSVSPGERATLSCRASENIYSYLTWYQQKPGQAPRLLIYNAKILAEGIPARFSGSGSGTEFTLTISSLQSEDFAVYYCQHHFGTPFTFGQGTKLEIK |
| binds | humanized 45A2E10-09 antibody (antibody, V domains shown) VH: QVQLQESGPGLVKPSQTLSLTCAVYGGSFSNYGVHWIRQPPGKGLEWIGLIWAGGHTNYNSALMSRVTISKDNSKSQISLKLSSVTAADTAVYYCAREVRRDWYFDVWGQGTMVTVSS VL: EIVMTQSPATLSVSPGERATLSCRASENIYSYLTWYQQKPGQAPRLLIYNAKILAEGIPARFSGSGSGTEFTLTISSLQSEDFAVYYCQHHFGTPFTFGQGTKLEIK |
| binds | humanized 45A2E10-05 antibody (antibody, V domains shown) VH: QVQLQESGPGLVKPSETLSLTCTVSGGSISNYGVHWIRQPPGKGLEWIGLIWAGGHTNYNSALMSRVTISKDNSKSQISLKLSSVTAADTAVYYCAREVRRDWYFDVWGQGTMVTVSS VL: DIQMTQSPSTLSASVGDRVTITCRASENIYSYLTWYQQKPGKAPKLLIYNAKILAEGVPSRFSGSGSGTEFTLTISSLQPDDFATYYCQHHFGTPFTFGQGTKLEIK |

The binders below were run against CEACAM5 recombinant protein (Biacore analyte) (UniProt P06731) (assay: SPR, Biacore 8K, antibody on protein A chip, CEACAM5 1.5625 to 200 nM).

| binding | Binder |
| --- | --- |
| binds | humanized 81E3A8-02 antibody (antibody, V domains shown) VH: QIQLVQSGSELKKPGASVKVSCKASGYTFTNFGMNWVRQAPGQGLEWMGWINTYTGKPTYDDDFKGRFVFSLDTSVSTAYLQISSLKAEDTAVYYCAREAGKDYAMDYWGQGTLVTVSS VL: EIVLTQSPATLSLSPGERATLSCSASSSVTFMHWYQQKPGQAPRRLIYDTSKLASGIPARFSGSGSGTDYTLTISSLEPEDAAVYYCQQWNNYPWTFGGGTKVEIK |
| binds | humanized 81E3A8-12 antibody (antibody, V domains shown) VH: QIQLVQSGAEVKKPGASVKVSCKASGYTFTNFGMNWVRQAPGQGLEWMGWINTYTGKPTYDDDFKGRVTMTLDTSTSTAYMELRSLRSDDMAVYYCAREAGKDYAMDYWGQGTLVTVSS VL: EIVLTQSPATLSVSPGERATLSCSASSSVTFMHWYQQKPGQAPRRLIYDTSKLASGIPARFSGSGSGTEYTLTISSMQSEDAAVYYCQQWNNYPWTFGGGTKVEIK |
| binds | humanized 81E3A8-06 antibody (antibody, V domains shown) VH: QIQLVQSGSELKKPGASVKVSCKASGYTFTNFGMNWVRQAPGQGLEWMGWINTYTGKPTYDDDFKGRFVFSLDTSVSTAYLQISSLKAEDTAVYYCAREAGKDYAMDYWGQGTLVTVSS VL: DIQLTQSPSTLSASVGDRVTITCSASSSVTFMHWYQQKPGKAPKRLIYDTSKLASGVPSRFSGSGSGTEYTLTISSLQPDDAATYYCQQWNNYPWTFGGGTKVEIK |
| binds | humanized 81E3A8-10 antibody (antibody, V domains shown) VH: QIQLVQSGSELKKPGASVKVSCKASGYTFTNFGMNWVRQAPGQGLEWMGWINTYTGKPTYDDDFKGRFVFSLDTSVSTAYLQISSLKAEDTAVYYCAREAGKDYAMDYWGQGTLVTVSS VL: EIVLTQSPATLSVSPGERATLSCSASSSVTFMHWYQQKPGQAPRRLIYDTSKLASGIPARFSGSGSGTEYTLTISSMQSEDAAVYYCQQWNNYPWTFGGGTKVEIK |
| binds | humanized 81E3A8-14 antibody (antibody, V domains shown) VH: QIQLVQSGSELKKPGASVKVSCKASGYTFTNFGMNWVRQAPGQGLEWMGWINTYTGKPTYDDDFKGRFVFSLDTSVSTAYLQISSLKAEDTAVYYCAREAGKDYAMDYWGQGTLVTVSS VL: DIQLTQSPSSLSASVGDRVTITCSASSSVTFMHWYQQKPGKAPKRLIYDTSKLASGVPSRFSGSGSGTDYTLTISSLQPEDAATYYCQQWNNYPWTFGGGTKVEIK |
